Record: PubChem BioAssay AID1224830 (NIAID, 2016)
The whole screen tested about 18,000 reagents; this is a random part of them. In the full data, about 2,900 (16%) were called active. 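Calls are made per well; low scores hint the gene aids the LPS response, high scores that it dampens it.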 Repeated entries: four replicate wells of each siRNA pool.

Aim: 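Host factors that control LPS-induced TNF expression in human macrophages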 (primary screen)
Cells: human THP-1 monocytic leukaemia cells, TNF dual-luciferase reporter clone, PMA-differentiated to macrophage-like cells
Knock-down reagent: siRNA pool against human genes, 50 nM
Duration: LPS for 4 h, given about 3 days after siRNA transfection
Conditions: bacterial LPS (TLR4 ligand), 10 ng/ml
Detection: 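Ratio of firefly to renilla light, scaled to the plate median and expressed as a robust z-score per replicate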
Direction: TNF reporter robust z-score: higher = stronger TNF reporter response to LPS
Hit rule: 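Each well counts as active if its z-score is over 2.8 or under -1.5; controls are left without a call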

The opening 5 entries, ahead of the listing:
target | TNF reporter robust z-score | Call
EIF5A (eukaryotic translation initiation factor 5A) | 0.4 | inactive
EIF5A (eukaryotic translation initiation factor 5A) | 0.78 | inactive
EIF5A (eukaryotic translation initiation factor 5A) | -1.15 | inactive
EIF5A (eukaryotic translation initiation factor 5A) | 2.07 | inactive
RBMY1D (RNA binding motif protein Y-linked family 1 member D) | 0.06 | inactive

Main list, from the first entry:
target | TNF reporter robust z-score | Call
EIF5A (eukaryotic translation initiation factor 5A) | 0.4 | inactive
EIF5A (eukaryotic translation initiation factor 5A) | 0.78 | inactive
EIF5A (eukaryotic translation initiation factor 5A) | -1.15 | inactive
EIF5A (eukaryotic translation initiation factor 5A) | 2.07 | inactive
RBMY1D (RNA binding motif protein Y-linked family 1 member D) | 0.06 | inactive
RBMY1D (RNA binding motif protein Y-linked family 1 member D) | 0.77 | inactive
RBMY1D (RNA binding motif protein Y-linked family 1 member D) | 1.07 | inactive
RBMY1D (RNA binding motif protein Y-linked family 1 member D) | 2.22 | inactive
ZNF576 (zinc finger protein 576) | -0.92 | inactive
ZNF576 (zinc finger protein 576) | -1.36 | inactive
ZNF576 (zinc finger protein 576) | -0.8 | inactive
ZNF576 (zinc finger protein 576) | -0.97 | inactive
CCL21 (C-C motif chemokine ligand 21) | 0.55 | inactive
CCL21 (C-C motif chemokine ligand 21) | 0.8 | inactive
CCL21 (C-C motif chemokine ligand 21) | -0.18 | inactive
CCL21 (C-C motif chemokine ligand 21) | -0.08 | inactive
TMEM259 (transmembrane protein 259) | 0.11 | inactive
TMEM259 (transmembrane protein 259) | 0.25 | inactive
TMEM259 (transmembrane protein 259) | 0.63 | inactive
TMEM259 (transmembrane protein 259) | -1.03 | inactive
MKX (mohawk homeobox) | 2.6 | inactive
MKX (mohawk homeobox) | 3.99 | active
MKX (mohawk homeobox) | 2.77 | inactive
MKX (mohawk homeobox) | 4.36 | active
OR52M1 (olfactory receptor family 52 subfamily M member 1) | -0.93 | inactive
OR52M1 (olfactory receptor family 52 subfamily M member 1) | -0.42 | inactive
OR52M1 (olfactory receptor family 52 subfamily M member 1) | -0.99 | inactive
OR52M1 (olfactory receptor family 52 subfamily M member 1) | 0.11 | inactive
DIP2A (DIP2 acetate--CoA ligase A) | 0.45 | inactive
DIP2A (DIP2 acetate--CoA ligase A) | 0.62 | inactive
DIP2A (DIP2 acetate--CoA ligase A) | 0.57 | inactive
DIP2A (DIP2 acetate--CoA ligase A) | 0.49 | inactive
FBXO25 (F-box protein 25) | -1.09 | inactive
FBXO25 (F-box protein 25) | 2.02 | inactive
FBXO25 (F-box protein 25) | 1.59 | inactive
FBXO25 (F-box protein 25) | 1 | inactive
APBA1 (amyloid beta precursor protein binding family A member 1) | -1.12 | inactive
APBA1 (amyloid beta precursor protein binding family A member 1) | -0.26 | inactive
APBA1 (amyloid beta precursor protein binding family A member 1) | -1.17 | inactive
APBA1 (amyloid beta precursor protein binding family A member 1) | -0.61 | inactive
ARPP21 (cAMP regulated phosphoprotein 21) | -0.12 | inactive
ARPP21 (cAMP regulated phosphoprotein 21) | 0.73 | inactive
ARPP21 (cAMP regulated phosphoprotein 21) | 0.37 | inactive
ARPP21 (cAMP regulated phosphoprotein 21) | 0.59 | inactive
NTF3 (neurotrophin 3) | 0.04 | inactive
NTF3 (neurotrophin 3) | 0.36 | inactive
NTF3 (neurotrophin 3) | 0.49 | inactive
NTF3 (neurotrophin 3) | -0.14 | inactive
ZCCHC17 (zinc finger CCHC-type containing 17) | -0.41 | inactive
ZCCHC17 (zinc finger CCHC-type containing 17) | -0.29 | inactive
ZCCHC17 (zinc finger CCHC-type containing 17) | -1.52 | active
ZCCHC17 (zinc finger CCHC-type containing 17) | 0.14 | inactive
GLIPR1 (GLI pathogenesis related 1) | 1.42 | inactive
GLIPR1 (GLI pathogenesis related 1) | 1.29 | inactive
GLIPR1 (GLI pathogenesis related 1) | 0.55 | inactive
GLIPR1 (GLI pathogenesis related 1) | 1.59 | inactive
RBBP4 (RB binding protein 4, chromatin remodeling factor) | 0.87 | inactive
RBBP4 (RB binding protein 4, chromatin remodeling factor) | 0.45 | inactive
RBBP4 (RB binding protein 4, chromatin remodeling factor) | 2.01 | inactive
SIGLEC1 (sialic acid binding Ig like lectin 1) | 0.88 | inactive
SIGLEC1 (sialic acid binding Ig like lectin 1) | 3.1 | active
SIGLEC1 (sialic acid binding Ig like lectin 1) | 0.87 | inactive
SIGLEC1 (sialic acid binding Ig like lectin 1) | 1.83 | inactive
SLC22A24 | -0.16 | inactive
SLC22A24 | -1.11 | inactive
SLC22A24 | -0.76 | inactive
SLC22A24 | -1.01 | inactive
TBC1D22A (TBC1 domain family member 22A) | -0.32 | inactive
TBC1D22A (TBC1 domain family member 22A) | -0.92 | inactive
TBC1D22A (TBC1 domain family member 22A) | -0.8 | inactive
TBC1D22A (TBC1 domain family member 22A) | -0.33 | inactive
VTCN1 (V-set domain containing T cell activation inhibitor 1) | -0.06 | inactive
VTCN1 (V-set domain containing T cell activation inhibitor 1) | -0.59 | inactive
VTCN1 (V-set domain containing T cell activation inhibitor 1) | 0.86 | inactive
VTCN1 (V-set domain containing T cell activation inhibitor 1) | 0.56 | inactive
VTA1 (vesicle trafficking 1) | 0.1 | inactive
VTA1 (vesicle trafficking 1) | 0.37 | inactive
VTA1 (vesicle trafficking 1) | -0.25 | inactive
VTA1 (vesicle trafficking 1) | 0.95 | inactive
HEPH (hephaestin) | -0.54 | inactive
HEPH (hephaestin) | -0.52 | inactive
HEPH (hephaestin) | 0.35 | inactive
HEPH (hephaestin) | -0.22 | inactive
GRK6 (G protein-coupled receptor kinase 6) | -0.29 | inactive
GRK6 (G protein-coupled receptor kinase 6) | 0.04 | inactive
GRK6 (G protein-coupled receptor kinase 6) | -0.37 | inactive
GRK6 (G protein-coupled receptor kinase 6) | -0.8 | inactive
SLC19A1 | -0.04 | inactive
SLC19A1 | 0.21 | inactive
SLC19A1 | 0.9 | inactive
LRRC73 (leucine rich repeat containing 73) | -1.89 | active
LRRC73 (leucine rich repeat containing 73) | -1.36 | inactive
LRRC73 (leucine rich repeat containing 73) | -1.26 | inactive
LRRC73 (leucine rich repeat containing 73) | -1.33 | inactive
EXTL1 (exostosin like glycosyltransferase 1) | -0.26 | inactive
EXTL1 (exostosin like glycosyltransferase 1) | 1.04 | inactive
EXTL1 (exostosin like glycosyltransferase 1) | 0.32 | inactive
EXTL1 (exostosin like glycosyltransferase 1) | -0.31 | inactive
SPATA1 (spermatogenesis associated 1) | -0.41 | inactive
SPATA1 (spermatogenesis associated 1) | -0.02 | inactive
SPATA1 (spermatogenesis associated 1) | -0.73 | inactive
SPATA1 (spermatogenesis associated 1) | 3.03 | active
SLC6A19 | -0.01 | inactive
SLC6A19 | -0.88 | inactive
SLC6A19 | 1.47 | inactive
SLC6A19 | 1.17 | inactive
PNLIPRP1 (pancreatic lipase related protein 1) | -1.03 | inactive
PNLIPRP1 (pancreatic lipase related protein 1) | -1.16 | inactive
PNLIPRP1 (pancreatic lipase related protein 1) | -1.28 | inactive
PNLIPRP1 (pancreatic lipase related protein 1) | -0.95 | inactive
